Assay results reported in PMC2928751.
No constants are given. Whether binding was seen depends on the method and setting. Binding seen in cells or lysates may run through a third protein. Some binding calls cover weakened binding; strength is not graded here. For part of these data: Where a sequence is shown, tags or fusion partners need not be part of it.

Sequences of proteins named here, by UniProt entry; tags and fusion partners are left off. A change or cut given only in a name is not applied to a line headed by its entry. A line that says so, or that is headed by a name, gives the form on record, which may keep a tag or linker. Residues count along the entry.
GST-JNK1 (P45983-2, form named): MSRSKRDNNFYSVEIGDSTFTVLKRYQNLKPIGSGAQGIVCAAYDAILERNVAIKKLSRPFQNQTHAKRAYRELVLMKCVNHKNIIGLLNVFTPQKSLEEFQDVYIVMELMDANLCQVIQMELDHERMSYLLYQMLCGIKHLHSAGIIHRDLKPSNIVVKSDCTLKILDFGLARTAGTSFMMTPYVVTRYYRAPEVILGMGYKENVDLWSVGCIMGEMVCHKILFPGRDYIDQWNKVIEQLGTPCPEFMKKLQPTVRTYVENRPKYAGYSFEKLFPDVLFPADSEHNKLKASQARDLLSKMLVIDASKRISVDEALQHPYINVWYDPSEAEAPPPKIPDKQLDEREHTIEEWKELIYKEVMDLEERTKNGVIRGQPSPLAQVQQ
35S-radiolabeled JNK3 (P53779-2, form named): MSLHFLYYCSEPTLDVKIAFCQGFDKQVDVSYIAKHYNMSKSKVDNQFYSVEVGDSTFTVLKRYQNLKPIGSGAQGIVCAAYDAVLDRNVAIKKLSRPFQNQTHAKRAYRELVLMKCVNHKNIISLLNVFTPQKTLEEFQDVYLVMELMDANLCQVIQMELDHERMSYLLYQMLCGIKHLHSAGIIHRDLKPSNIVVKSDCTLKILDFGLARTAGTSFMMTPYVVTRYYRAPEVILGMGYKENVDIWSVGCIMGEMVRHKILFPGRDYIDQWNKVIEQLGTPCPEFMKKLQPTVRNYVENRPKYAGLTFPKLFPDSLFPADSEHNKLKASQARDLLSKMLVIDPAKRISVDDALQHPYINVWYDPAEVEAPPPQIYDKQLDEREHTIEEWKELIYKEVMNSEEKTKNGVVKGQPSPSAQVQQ
UniProt P10071, residues 280-478: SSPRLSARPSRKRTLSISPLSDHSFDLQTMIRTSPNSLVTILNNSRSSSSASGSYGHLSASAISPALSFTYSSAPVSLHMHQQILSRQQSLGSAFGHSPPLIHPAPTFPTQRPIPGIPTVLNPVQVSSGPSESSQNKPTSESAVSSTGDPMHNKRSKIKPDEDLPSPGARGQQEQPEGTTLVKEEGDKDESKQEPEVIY
UniProt Q96FI4: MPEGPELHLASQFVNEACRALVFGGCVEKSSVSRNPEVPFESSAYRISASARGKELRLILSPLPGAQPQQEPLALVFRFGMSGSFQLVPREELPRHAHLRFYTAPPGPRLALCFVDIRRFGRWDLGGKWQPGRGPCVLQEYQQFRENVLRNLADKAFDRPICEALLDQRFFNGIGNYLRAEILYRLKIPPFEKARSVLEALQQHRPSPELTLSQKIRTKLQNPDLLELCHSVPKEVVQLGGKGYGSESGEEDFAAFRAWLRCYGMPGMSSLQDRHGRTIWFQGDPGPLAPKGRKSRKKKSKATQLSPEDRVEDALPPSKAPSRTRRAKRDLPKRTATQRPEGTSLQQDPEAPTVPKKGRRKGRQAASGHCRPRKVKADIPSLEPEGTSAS

Tests used:
Test in all cases: pull-down; GST fusion protein (or GST alone) bound to glutathione-Sepharose beads; ~1 pmol 35S-labelled in vitro translated partner, partially purified by ammonium sulfate precipitation; binding buffer 20 mM Tris-HCl pH 7.5, 125 mM KOAc, 0.5 mM EDTA, 1 mM DTT, 0.1% Tween20, 12.5% glycerol; 30°C 15 min, then 30 min at room temperature; only the target purified
GST-JNK1 (human) = GST-JNK1 (human) (UniProt P45983)
[1] = molecular target: T1, GST-PPM1J(17-506), wild type (human) (UniProt Q5JR12)
T1 sequence: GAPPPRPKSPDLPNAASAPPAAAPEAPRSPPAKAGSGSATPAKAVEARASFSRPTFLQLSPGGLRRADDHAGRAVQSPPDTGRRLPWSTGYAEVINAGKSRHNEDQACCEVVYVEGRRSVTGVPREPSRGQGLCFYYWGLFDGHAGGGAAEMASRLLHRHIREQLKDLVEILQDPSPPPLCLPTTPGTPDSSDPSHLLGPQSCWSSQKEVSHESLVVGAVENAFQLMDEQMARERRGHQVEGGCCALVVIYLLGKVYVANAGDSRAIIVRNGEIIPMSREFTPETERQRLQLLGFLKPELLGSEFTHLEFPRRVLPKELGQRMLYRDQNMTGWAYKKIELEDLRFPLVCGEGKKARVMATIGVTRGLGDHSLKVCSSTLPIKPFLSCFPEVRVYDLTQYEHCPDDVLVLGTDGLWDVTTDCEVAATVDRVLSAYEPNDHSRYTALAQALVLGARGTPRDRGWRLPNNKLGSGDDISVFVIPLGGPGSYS

GST-JNK3 (human) = GST-JNK3 (human) (UniProt P53779)
GST-JNK2 (human) = GST-JNK2 (human) (UniProt P45984)

| binding (GST-JNK1 (human)) | binding [1] | binding (GST-JNK3 (human)) | binding (GST-JNK2 (human)) | Substance |
| --- | --- | --- | --- | --- |
| binds |  |  |  | Heterogeneous nuclear ribonucleoprotein K (hnRNP-K), full length, wild type (from UniProt P61978-2 1-464) |
| binds |  | binds | binds | Gli3(280-478), wild type (from UniProt P10071 280-478) (domain or fragment) |
|  | binds |  |  | 35S-radiolabeled JNK3 (from UniProt P53779-2 1-422) (enzyme) |

Further lines, the substance ahead of its results:

| Substance | binding (GST-JNK1 (human)) | binding [1] | binding (GST-JNK3 (human)) | binding (GST-JNK2 (human)) |
| --- | --- | --- | --- | --- |
| 35S-radiolabeled JNK2 (from UniProt P45984-1 1-424) (enzyme) |  | binds |  |  |
| 35S-radiolabeled JNK1 (from UniProt P45983-2 1-384) (enzyme) |  | binds |  |  |
| Nei endonuclease VIII-like 1 (Neil1), full length (from UniProt Q96FI4 1-390) | binds |  |  | no binding |
